These are yes or no findings as the source states them, for the method shown. Binding calls can cover weak binding; strength is not graded here. Sequences can lack the tags named with a protein.
Molecular target: T1, AtOFP1 fused to the GAL4 DNA-binding domain (pGBKT7-AtOFP1) (Arabidopsis thaliana) (UniProt Q9LZW2)
T1 sequence: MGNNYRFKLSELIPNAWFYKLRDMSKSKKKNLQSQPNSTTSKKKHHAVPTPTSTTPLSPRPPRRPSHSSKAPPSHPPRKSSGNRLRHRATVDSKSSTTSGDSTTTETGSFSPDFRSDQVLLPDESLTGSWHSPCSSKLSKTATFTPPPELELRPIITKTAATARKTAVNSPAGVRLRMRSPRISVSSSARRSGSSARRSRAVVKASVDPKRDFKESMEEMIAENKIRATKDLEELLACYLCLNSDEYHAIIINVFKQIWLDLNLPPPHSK
Assay: two-hybrid; GAL4 system in yeast AH109; AtOFP1 in pGBKT7 (BD), AtKNAT3 or its fragments in pGADT7 (AD); growth on SD/-Leu/-Trp/-His/-Ade

- binding: binds
Substance: HD domain of AtKNAT3 fused to the GAL4 activation domain (pGADT7) (Arabidopsis thaliana) (domain or fragment)

Reference: paper PMC9267126
